{"sequences": {"note": "Protein sequences, listed by entry. Tags and fused reporters are not part of them.", "UniProt P0AES4, whole entry, looked up": "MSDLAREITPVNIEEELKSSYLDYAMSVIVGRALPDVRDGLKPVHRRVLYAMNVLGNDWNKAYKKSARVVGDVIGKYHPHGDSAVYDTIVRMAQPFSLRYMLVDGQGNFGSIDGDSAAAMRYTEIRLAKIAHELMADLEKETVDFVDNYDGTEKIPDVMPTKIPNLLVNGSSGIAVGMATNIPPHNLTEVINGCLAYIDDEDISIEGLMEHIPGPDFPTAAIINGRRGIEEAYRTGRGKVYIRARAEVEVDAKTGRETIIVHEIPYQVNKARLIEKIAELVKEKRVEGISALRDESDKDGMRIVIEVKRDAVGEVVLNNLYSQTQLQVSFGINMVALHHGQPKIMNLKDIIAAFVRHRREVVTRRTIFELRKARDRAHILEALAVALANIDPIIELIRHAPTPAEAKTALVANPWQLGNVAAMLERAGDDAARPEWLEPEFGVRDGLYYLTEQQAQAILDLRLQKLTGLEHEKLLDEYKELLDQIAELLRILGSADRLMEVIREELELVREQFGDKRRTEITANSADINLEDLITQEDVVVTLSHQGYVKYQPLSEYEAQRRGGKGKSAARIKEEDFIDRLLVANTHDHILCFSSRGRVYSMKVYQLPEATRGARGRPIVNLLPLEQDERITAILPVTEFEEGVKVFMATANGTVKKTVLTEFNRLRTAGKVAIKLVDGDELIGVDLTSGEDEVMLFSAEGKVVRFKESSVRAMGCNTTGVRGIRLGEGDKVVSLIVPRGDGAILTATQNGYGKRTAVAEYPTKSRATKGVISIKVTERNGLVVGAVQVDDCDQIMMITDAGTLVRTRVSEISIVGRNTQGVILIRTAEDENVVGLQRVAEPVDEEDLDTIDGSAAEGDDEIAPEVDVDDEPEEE"}, "source": "ChEMBL document CHEMBL1123417", "about": "“New structure-activity relationships of the quinolone antibacterials using the target enzyme. The development and application of a DNA gyrase assay” (J Med Chem, 1986)", "biological_target": "DNA gyrase (Escherichia coli, UniProt P0AES4+P0AES6)", "experiment": "Inhibitory concentration in supercoiling inhibition Escherichia coli DNA gyrase assay", "type": "protein-complex assay", "conditions": "read-out: I50 (converted)", "outline": "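Gyrase A and B subunits purified from E. coli H560, each titrated to fully supercoil relaxed Col E1 plasmid (~0.3 μg/mL). Drug in 0.1 N KOH, 40 min at 30 °C, then ATP for 10 min. SDS/proteinase K quench, 1% agarose gel, ethidium stain. Serial dilutions start at 200 μg/mL. I50 is the mean of the initial-inhibition and 100%-inhibition concentrations.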"}
{"smiles": "CCn1cc(C(=O)O)c(=O)c2cc(F)c(N3CCN(C)CC3)cc21", "note": "[PEFLOXACIN]", "values": [{"measurement": "IC50", "value": 16.5, "unit": "µM"}]}
